Results taken from PubChem BioAssay (EPA / NIEHS).
Inconclusive means that the source gave no clear call. Such entries were picked first, then a sample of the others. Where the call is inconclusive, the potency comes from a doubtful curve fit. The source holds several records for some structures; these can differ, active in one and inactive in another. Calls of active or inactive are those of the source. The calls were made as follows: active = hit-call score of the fitted dose curve at least 0.9, where 1 is the maximum; inconclusive = response in the unintended direction; inactive = score below 0.9.

The chains behind the UniProt entries cited, without tags or fusion partners. Where a name states a change or a piece, a line headed by the entry shows the natural chain unless it says otherwise.
UniProt P10275: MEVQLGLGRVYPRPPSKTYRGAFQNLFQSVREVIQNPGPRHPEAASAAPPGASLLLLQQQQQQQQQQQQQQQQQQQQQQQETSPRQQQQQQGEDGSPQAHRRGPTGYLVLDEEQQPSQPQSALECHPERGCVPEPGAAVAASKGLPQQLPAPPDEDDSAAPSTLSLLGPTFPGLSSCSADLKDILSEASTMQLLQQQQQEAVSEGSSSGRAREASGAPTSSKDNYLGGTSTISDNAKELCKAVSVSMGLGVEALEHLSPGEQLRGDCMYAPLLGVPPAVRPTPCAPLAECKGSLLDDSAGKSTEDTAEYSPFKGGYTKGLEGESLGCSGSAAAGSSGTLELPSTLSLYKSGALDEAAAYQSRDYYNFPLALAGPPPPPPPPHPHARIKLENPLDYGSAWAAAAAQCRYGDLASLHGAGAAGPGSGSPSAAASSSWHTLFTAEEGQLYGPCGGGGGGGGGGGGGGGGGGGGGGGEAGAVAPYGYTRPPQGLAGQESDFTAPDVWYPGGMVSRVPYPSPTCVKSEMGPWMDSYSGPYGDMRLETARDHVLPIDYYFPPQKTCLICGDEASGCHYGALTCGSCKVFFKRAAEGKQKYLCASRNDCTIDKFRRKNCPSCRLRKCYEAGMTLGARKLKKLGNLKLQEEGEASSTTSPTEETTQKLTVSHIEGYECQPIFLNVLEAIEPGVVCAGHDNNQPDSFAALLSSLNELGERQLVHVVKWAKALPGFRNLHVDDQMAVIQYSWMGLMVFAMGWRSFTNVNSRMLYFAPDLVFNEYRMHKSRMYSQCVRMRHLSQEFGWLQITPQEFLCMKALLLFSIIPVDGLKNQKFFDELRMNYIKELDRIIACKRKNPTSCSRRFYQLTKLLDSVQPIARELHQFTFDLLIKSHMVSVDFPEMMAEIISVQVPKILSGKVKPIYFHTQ
UniProt P03372, whole entry, looked up: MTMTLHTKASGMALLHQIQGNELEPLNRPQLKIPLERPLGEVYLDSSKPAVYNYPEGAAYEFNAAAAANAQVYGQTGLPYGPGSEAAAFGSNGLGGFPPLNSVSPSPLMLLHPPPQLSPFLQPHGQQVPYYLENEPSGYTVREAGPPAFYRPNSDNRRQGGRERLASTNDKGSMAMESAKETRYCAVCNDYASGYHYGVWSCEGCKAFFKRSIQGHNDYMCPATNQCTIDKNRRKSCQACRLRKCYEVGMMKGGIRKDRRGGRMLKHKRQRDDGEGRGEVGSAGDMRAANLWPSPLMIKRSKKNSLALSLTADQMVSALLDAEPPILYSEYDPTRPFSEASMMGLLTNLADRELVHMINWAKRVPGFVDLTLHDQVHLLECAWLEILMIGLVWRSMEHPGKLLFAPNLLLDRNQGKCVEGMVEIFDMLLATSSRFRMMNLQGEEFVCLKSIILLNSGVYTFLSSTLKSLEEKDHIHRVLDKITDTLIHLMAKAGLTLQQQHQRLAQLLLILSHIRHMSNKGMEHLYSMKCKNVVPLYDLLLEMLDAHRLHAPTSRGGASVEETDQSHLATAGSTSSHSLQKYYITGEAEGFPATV

biological target: Ratio of Nucleoli Translocation and Cytoplasm, AR (gene 367) (UniProt P10275); assay: UPITT_HCI_U2OS_AR_TIF2_Nucleoli_Cytoplasm_Ratio_Agonist: University of Pittsburgh U2OS Androgen Receptor-Transcriptional Intermediary Factor 2 (AR-TIF2) Agonism High Content Imaging Assay for Ratio of Nucleoli Translocation and Cytoplasm (AID 2284000);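 also: hits raise the red nucleolar to cytoplasm ratio above vehicle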
How it was run: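 U2OS cells expressing RFP-tagged human AR and GFP-tagged TIF2 were imaged by high-content fluorescence microscopy. The endpoint is the ratio of nucleolar to cytoplasmic red fluorescence, fitted for gain of signal relative to DMSO. Concentration-response spanned 0.195 to 50 uM final (0.5% DMSO).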

Row | SMILES | AC50 | outcome
1 | CCCCCCCc1ccc(O)cc1 | active: 28.9 µM | –
2 | O=C1CCCO1 | inconclusive: 50 µM | –
3 | CCC1(c2ccc(N)cc2)CCC(=O)NC1=O (configuration not stated) | inconclusive: 50 µM | –
4 | CCCCCCCCOC(=O)c1ccccc1C(=O)OCCCCCCCC | inconclusive: 50 µM | –
5 | O=c1[nH]c(=O)[nH]c(=O)[nH]1 | inconclusive: 49.8 µM | –
6 | CC1(C)CCC(=Cc2ccc(Cl)cc2)C1(O)Cn1cncn1 (configuration not stated) | active: 15.9 µM | –
7 | CNC(=O)Oc1cccc2c1OC(C)(C)C2 | inconclusive: 50 µM | –
8 | CO/C=C(/C(=O)OC)c1ccccc1Oc1cc(Oc2ccccc2C#N)ncn1 | inconclusive: 50 µM | –
9 | O=S1OCC2C(CO1)C1(Cl)C(Cl)=C(Cl)C2(Cl)C1(Cl)Cl (configuration not stated) | inconclusive: 50 µM | –
10 | N#CCC#N | inconclusive: 50 µM | –
11 | C[C@H]1CCCC(=O)CCC/C=C/c2cc(O)cc(O)c2C(=O)O1 | active: 84.8 µM | –
12 | ClC1(Cl)C2(Cl)C3(Cl)C4(Cl)C(Cl)(Cl)C5(Cl)C3(Cl)C1(Cl)C5(Cl)C24Cl (configuration not stated) | inconclusive: 50 µM | –
13 | CC(C)(C)N(NC(=O)c1ccc(Cl)cc1)C(=O)c1ccccc1 | inconclusive: 50 µM | –
14 | O=S1OC[C@@H]2[C@H](CO1)[C@]1(Cl)C(Cl)=C(Cl)[C@@]2(Cl)C1(Cl)Cl (some centres not stated) | inconclusive: 50 µM | –
15 | O=S1(=O)OC(c2cc(Br)c(O)c(Br)c2)(c2cc(Br)c(O)c(Br)c2)c2ccccc21 | inconclusive: 46.5 µM | –
16 | CCON=C(CC)C1=C(O)CC(c2c(C)cc(C)cc2C)CC1=O (configuration not stated) | inconclusive: 50 µM | –
17 | CCc1cccc(CC)c1N(COC)C(=O)CCl | – | inactive
18 | O=[N+]([O-])c1c(Cl)c(Cl)c(Cl)c(Cl)c1Cl | – | inactive
19 | O=[N+]([O-])c1ccc(Cl)c([N+](=O)[O-])c1 | active: 13.1 µM | –
20 | COP(=O)(OC)OC(Br)C(Cl)(Cl)Br (configuration not stated) | active: 77.9 µM | –
21 | CCOP(=O)(OCC)Oc1nc(Cl)c(Cl)cc1Cl | – | inactive

tested on: not listed separately; assay: CCTE_Simmons_MITO_viability: CellTiter-Glo Viability Assessment for CCTE's HepG2 Seahorse XF Respirometric Screening Assay [post-hoc], Simmons Lab (AID 2284007);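 also: cells exposed to chemical for 90 min before the ATP read; actives lower ATP signal relative to DMSO baseline meaning reduced viability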
How it was run: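 HepG2 cells from the Seahorse XF respirometry run were exposed 90 min to a 7-point series, 125 nM–100 uM final, DMSO vehicle; ATP content then read by luciferase luminescence. Three biological replicates, technical singles; loss of signal fitted versus DMSO.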

Row | SMILES | AC50
22 | O=[N+]([O-])c1ccc(O)c([N+](=O)[O-])c1 | active: 18.1 µM
23 | CCCCCCCc1ccc(O)cc1 | inconclusive: 5.2 µM
24 | O=C1C2(Cl)C3(Cl)C4(Cl)C(Cl)(Cl)C5(Cl)C3(Cl)C1(Cl)C5(Cl)C24Cl (configuration not stated) | active: 71.6 µM

tested on: not listed separately; assay: CCTE_Harrill_HTTr_CellCount_MCF7: CCTE's Cell Proliferation Assessment for the High-Throughput Transcriptomics (HTTr) Platform, Harrill Lab (AID 2284012);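 also: cells exposed to compound for six hours; intended direction is loss of nuclei count meaning fewer cells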
How it was run: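 MCF-7 cells were exposed for 6 h to an eight-point dilution series; Hoechst-labeled nuclei were counted by high content imaging. Curves were fitted bidirectionally against DMSO as negative control and baseline, with signal loss indicating reduced cell count.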

Row | SMILES | AC50 | outcome
25 | CCCCCCCc1ccc(O)cc1 | inconclusive: 50 µM | –
26 | CCNS(=O)(=O)C(F)(F)C(F)(F)C(F)(F)C(F)(F)C(F)(F)C(F)(F)C(F)(F)C(F)(F)F | inconclusive: 47.5 µM | –
27 | CNC(=O)Oc1cccc2c1OC(C)(C)C2 | inconclusive: 9.92 µM | –
28 | N#CCC#N | – | inactive
29 | CC(C)Oc1cc(-n2nc(C(C)(C)C)oc2=O)c(Cl)cc1Cl | – | inactive
30 | ClC1(Cl)C2(Cl)C3(Cl)C4(Cl)C(Cl)(Cl)C5(Cl)C3(Cl)C1(Cl)C5(Cl)C24Cl (configuration not stated) | – | inactive
31 | O=S1OC[C@@H]2[C@H](CO1)[C@]1(Cl)C(Cl)=C(Cl)[C@@]2(Cl)C1(Cl)Cl (some centres not stated) | inconclusive: 50 µM | –
32 | CCCN(CCC)c1c([N+](=O)[O-])cc(C(F)(F)F)cc1[N+](=O)[O-] | inconclusive: 50 µM | –
33 | CCON=C(CC)C1=C(O)CC(c2c(C)cc(C)cc2C)CC1=O (configuration not stated) | inconclusive: 50 µM | –
34 | CCc1cccc(CC)c1N(COC)C(=O)CCl | inconclusive: 50 µM | –
35 | O=[N+]([O-])c1c(Cl)c(Cl)c(Cl)c(Cl)c1Cl | – | inactive
36 | C=CC(=O)NCNC(=O)C=C | inconclusive: 50 µM | –
37 | Cc1cc(Cl)ccc1OCC(=O)O | inconclusive: 50 µM | –

biological target: Estrogen receptor (Homo sapiens) (UniProt P03372); assay: CCTE_Deisenroth_AIME_384WELL_LUC_Active: CCTE's 384-well Estrogen Receptor Transactivation Assay with AIME metabolic competence (ERTA luciferase; metabolism positive), Deisenroth Lab (AID 2284030)
How it was run: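 VM7Luc4E2 breast cells were given, for 24 hours, medium pre-incubated for 2 hours with parent chemical (0.002-200 uM, 10 concentrations) and alginate-encapsulated phenobarbital/beta-naphthoflavone-induced rat hepatic S9. Luciferase gain of signal was fitted against 17beta-estradiol; n=4 or more.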

Row | SMILES | AC50 | outcome
38 | c1cc[c]([Hg][c]2ccccc2)cc1 | inconclusive: 100 µM | –
39 | O=S1(=O)OC(c2cc(Br)c(O)c(Br)c2)(c2cc(Br)c(O)c(Br)c2)c2ccccc21 | inconclusive: 63.1 µM | –
40 | CCON=C(CC)C1=C(O)CC(c2c(C)cc(C)cc2C)CC1=O (configuration not stated) | – | inactive
41 | CCOP(=O)(OCC)Oc1nc(Cl)c(Cl)cc1Cl | – | inactive
42 | N#Cc1cc(Br)c(O)c(Br)c1 | inconclusive: 71.9 µM | –

tested on: not listed separately; assay: CCTE_Deisenroth_AIME_384WELL_CTox_Active: Cytotoxicity Assessment (CTOX) in CCTE's 384-well Estrogen Receptor Transactivation Assay with AIME metabolic competence (metabolism positive), Deisenroth Lab (AID 2284037);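 also: chemicals first conditioned 2 h by alginate-bound induced rat liver S9 before cells; activity means signal loss indicating cell death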
How it was run: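 VM7Luc4E2 breast cells received medium pre-incubated 2 h with chemical over alginate microspheres holding induced male Sprague Dawley rat liver S9; viability read 24 h later by protease-substrate fluorescence. Loss of signal, bidirectional fit, 0.002–200 uM.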

Row | SMILES | AC50 | outcome
43 | c1cc[c]([Hg][c]2ccccc2)cc1 | inconclusive: 0.274 nM | –
44 | CCNS(=O)(=O)C(F)(F)C(F)(F)C(F)(F)C(F)(F)C(F)(F)C(F)(F)C(F)(F)C(F)(F)F | – | inactive
45 | CNC(=O)Oc1cccc2c1OC(C)(C)C2 | inconclusive: 0.2 nM | –
46 | CCCN(CCC)c1c([N+](=O)[O-])cc(C(F)(F)F)cc1[N+](=O)[O-] | inconclusive: 0.2 nM | –
47 | O=S1(=O)OC(c2cc(Br)c(O)c(Br)c2)(c2cc(Br)c(O)c(Br)c2)c2ccccc21 | active: 160000 nM | –
48 | CCOP(=O)(OCC)Oc1nc(Cl)c(Cl)cc1Cl | inconclusive: 0.195 nM | –

biological target: Estrogen receptor (Homo sapiens) (UniProt P03372); assay: CCTE_Deisenroth_AIME_384WELL_LUC_Inactive: CCTE's 384-well Estrogen Receptor Transactivation Assay without AIME metabolic competence (ERTA luciferase; metabolism negative), Deisenroth Lab (AID 2284038);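 also: hits raise estrogen receptor luciferase signal so potencies reflect agonists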
How it was run: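 Chemicals (10-point series, 0.002 - 200 uM) were incubated 2 hours with alginate-water microsphere lids lacking S9, then the conditioned medium was transferred to VM7Luc4E2 breast cells for 24 hour. Luciferase induction was read by bioluminescence, fitted upward relative to 17beta-estradiol.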

Row | SMILES | AC50
49 | O=S1OCC2C(CO1)C1(Cl)C(Cl)=C(Cl)C2(Cl)C1(Cl)Cl (configuration not stated) | active: 12 µM
50 | O=S1(=O)OC(c2cc(Br)c(O)c(Br)c2)(c2cc(Br)c(O)c(Br)c2)c2ccccc21 | inconclusive: 81.3 µM
51 | CCON=C(CC)C1=C(O)CC(c2c(C)cc(C)cc2C)CC1=O (configuration not stated) | inconclusive: 100 µM
52 | N#Cc1cc(Br)c(O)c(Br)c1 | inconclusive: 110 µM
